System: mouse embryonic stem cell (mESC)
Assay: M13 phage display selection, secondary CSC/ESC HP-library (ESC bound fraction)
Type: binding
Conditions: ESC bound fraction
Method: The M13 PhD-7 library (NEB, E8100) which contains 10^9 independent clones was purchased from New England Biolabs Inc. 10^13 plaque firming units (pfus) of M13 PhD-7 phages in 10 mL DMEM were pre-adsorbed by cancer cells in a T75 flask twice, each for 1 hour. Subsequently, the supernatant was transferred to a T25 flask containing 5×10^6 CSCs and incubated for 1 hour. The unbound and weakly associated phages were removed by centrifugation and suspension three times in DMEM/0/2% BSA. The cell pellet was suspended in 1 mL PBS containing 10^9 E. coli ER2738 and incubated in a shaker for 1 hour. Then 10 mL LB/5 mM MgCl2 was added. After being cultured over-night at 37° C., the cells were removed by centrifugation and phages in the supernatant were titrated. The aforementioned selection procedures were carried out for three rounds for EMT6 and PANC-1 to obtain the primary EMT6 CSC homing peptide (HP)- and PANC-1 CSC HP-library, respectively. Subsequently, M13 plaques were picked up to prepare the DNA for sequencing. The EMT6 CSC HP-library was further selected by CT26 CSCs, Hepa1-6 CSCs, and mouse embryonic stem cell (mESC) again to prepare the secondary CT26 CSC HP-, Hepa1-6 CSC HP-, and CSC/ES HP-library. The unbound fraction after mESC adsorption was collected and assigned as the CSC PH-library.
The primary CSC HP-library was selected directly once by either CT26 or Hepa1-6 CSCs to test the bias of CSC HP affinities to different kinds of cancers. […] The bias of CSC HP affinities between CSCs and embryonic stem cells (ESCs) was another interesting issue. […] Two new peptide sequences, KIYTTLD (CSC HP-9) (SEQ ID NO: 11) and NLQPPAY (CSC HP-12) (SEQ ID NO: 12), were read in the ESC unbound fraction (CSC HP-library) (Table 1).

Row | Substance | times of CSC HP sequence detected, Secondary CSC/ESC (n = 20)
1 | ATYGNLW (Cancer Stem Cell Targeting Peptide) [CSC HP-5, synthetic peptide that targets cancer stem cells] | 1
2 | ELTPLTL (Cancer Stem Cell Targeting Peptide) [CSC HP-8, synthetic peptide that targets cancer stem cells] | 2
3 | FPFTKNL (Cancer Stem Cell Targeting Peptide) [CSC HP-4, synthetic peptide that targets cancer stem cells] | 2
4 | FSGGGNH (Cancer Stem Cell Targeting Peptide) [CSC HP-3, synthetic peptide that targets cancer stem cells] | 1
5 | GMMSSPP (Cancer Stem Cell Targeting Peptide) [CSC HP-2, synthetic peptide that targets cancer stem cells] | 1
6 | HGGVRLY (Cancer Stem Cell Targeting Peptide) [CSC HP-7, synthetic peptide that targets cancer stem cells] | 1
7 | SQPTWMF (Cancer Stem Cell Targeting Peptide) [CSC HP-1, synthetic peptide that targets cancer stem cells] | 11
8 | YHMPALM (Cancer Stem Cell Targeting Peptide) [CSC HP-6, synthetic peptide that targets cancer stem cells] | 1

Reference: patent US10414798B2, “Cancer stem cell targeting peptide and use thereof” (AGRICULTURAL TECHNOLOGY RESEARCH INSTITUTE, priority 2015, dated 2019)
